Measured values taken from paper PMC11551737, “Structural and functional insights into the interaction between the bacteriophage T4 DNA processing proteins gp32 and Dda” (Nucleic Acids Research, 2024).
Where two headings read alike, the source gives them in different places. No constants are given. Whether binding was seen depends on the method and setting. Some results given as binding are weak or reduced against the parent protein; the word gives no strength.

Columns and labels:
[1] = molecular target: T1, bacteriophage T4 helicase Dda, ATPase deficient mutant K38A (bacteriophage T4) (UniProt P32270); assay: SPR; SPR analysis 1: Biacore 3000, 25°C; His-tagged Dda-K38A/dT20 immobilised on an NTA chip by capture-coupling (~5800 RU); peptides injected, 4-fold dilution series, maximum 100 μM; 20 mM Tris-acetate pH 8.0, 150 mM NaCl, 10 mM magnesium acetate, 3 mM potassium glutamate, 1 mM TCEP, 0.05% Tween20, 10% glycerol; steady-state fit, 1:1 model; both purified
T1 sequence: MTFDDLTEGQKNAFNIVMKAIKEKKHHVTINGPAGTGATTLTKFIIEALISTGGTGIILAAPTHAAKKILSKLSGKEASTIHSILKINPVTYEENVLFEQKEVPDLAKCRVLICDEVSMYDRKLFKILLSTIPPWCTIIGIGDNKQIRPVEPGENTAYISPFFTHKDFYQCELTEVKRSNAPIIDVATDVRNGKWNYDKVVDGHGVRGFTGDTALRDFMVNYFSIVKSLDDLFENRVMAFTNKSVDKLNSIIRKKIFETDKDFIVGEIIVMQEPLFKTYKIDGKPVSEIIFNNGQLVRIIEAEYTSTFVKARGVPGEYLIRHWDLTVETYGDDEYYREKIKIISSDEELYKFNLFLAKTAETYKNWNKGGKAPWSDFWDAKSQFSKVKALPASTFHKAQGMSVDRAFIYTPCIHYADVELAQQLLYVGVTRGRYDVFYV

[2] = molecular target: T2, bacteriophage T4 helicase Dda, wild type (bacteriophage T4) (UniProt P32270); assay: SPR; SPR analysis 2: Biacore T200, 25°C; wild-type Dda/dT20 immobilised on an NTA chip as in SPR analysis 1; peptides injected, 2-fold dilution series, 100 μM to 0.78 μM; steady-state analysis; both purified
T2 sequence: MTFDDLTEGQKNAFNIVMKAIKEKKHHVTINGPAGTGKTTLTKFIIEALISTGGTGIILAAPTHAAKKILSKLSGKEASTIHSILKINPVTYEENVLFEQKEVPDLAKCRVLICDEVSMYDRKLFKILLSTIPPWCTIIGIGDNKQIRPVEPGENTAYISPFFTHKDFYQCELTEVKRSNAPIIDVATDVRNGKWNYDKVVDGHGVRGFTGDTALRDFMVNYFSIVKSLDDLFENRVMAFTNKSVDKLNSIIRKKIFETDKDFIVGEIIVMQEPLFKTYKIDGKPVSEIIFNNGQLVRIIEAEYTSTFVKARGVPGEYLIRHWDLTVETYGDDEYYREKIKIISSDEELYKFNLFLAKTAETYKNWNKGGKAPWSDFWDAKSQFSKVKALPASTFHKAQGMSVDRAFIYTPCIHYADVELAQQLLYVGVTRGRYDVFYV

[3] = molecular target: T2, bacteriophage T4 helicase Dda, wild type (bacteriophage T4); assay: as above; remark: listed apart in the source
[4] = molecular target: T1, bacteriophage T4 helicase Dda, ATPase deficient mutant K38A (bacteriophage T4); assay: AUC; sedimentation velocity, 20°C, 42 000 rpm; 20 mM Tris pH 7.0, 200 mM NaCl, 0.5 mM EDTA, 5 mM β-mercaptoethanol; Dda-K38A at 1.70 μM; both purified

gp32 C-terminal peptide 240–253 (from UniProt P03695 240-253)
binding [1]: no binding (tested: 100 μM)

gp32 C-terminal peptide 240–255 (from UniProt P03695 240-255)
binding [2]: no binding (tested: 100 μM)
binding [1]: no binding (tested: 100 μM)

NTKTEDDFMSSSSGSSSSADDTDLDDLLNDL [gp32 C-terminal peptide 271–301]
binding [3]: binds weakly

B1: bacteriophage T4 helicase Dda, ATPase deficient mutant K38A (enzyme, UniProt P32270 1-439)
chain: MTFDDLTEGQKNAFNIVMKAIKEKKHHVTINGPAGTGATTLTKFIIEALISTGGTGIILAAPTHAAKKILSKLSGKEASTIHSILKINPVTYEENVLFEQKEVPDLAKCRVLICDEVSMYDRKLFKILLSTIPPWCTIIGIGDNKQIRPVEPGENTAYISPFFTHKDFYQCELTEVKRSNAPIIDVATDVRNGKWNYDKVVDGHGVRGFTGDTALRDFMVNYFSIVKSLDDLFENRVMAFTNKSVDKLNSIIRKKIFETDKDFIVGEIIVMQEPLFKTYKIDGKPVSEIIFNNGQLVRIIEAEYTSTFVKARGVPGEYLIRHWDLTVETYGDDEYYREKIKIISSDEELYKFNLFLAKTAETYKNWNKGGKAPWSDFWDAKSQFSKVKALPASTFHKAQGMSVDRAFIYTPCIHYADVELAQQLLYVGVTRGRYDVFYV
binding [4]: no binding (tested: 1.70 μM)
